Taken from: PubChem BioAssay AID504786 (Drosophila RNAi Screening Center, 2011)
The deposit covers about 21,000 reagents; below is a random part of those that have a named target and a result. 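Primary screen; positive scores mean lost reporter signal, so the sign may be inverted from the usual convention.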 Further read-outs or replicates are left out here.

Screen: 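Fly genes required for HIF-dependent transcription when hypoxia is mimicked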 (primary screen)
Cells: Drosophila S2 cells with a stable HIF luciferase reporter
Knock-down reagent: long dsRNA against Drosophila genes, about 0.2 µg dsRNA per well of a 384-well plate
Timing: three days of knock-down, then 20 h of DFO before reading
Challenge: desferrioxamine (DFO) at 100 µM, an iron chelator that mimics hypoxia, for 20 h
Read-out: 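Firefly luciferase driven by the mouse ldh-a hypoxia-response element, measured after 20 h of 100 µM DFO; z-scores per plate, higher means more signal lost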
Direction: z-score: higher = stronger loss of HIF reporter signal

The first 4 entries, ahead of the listing:
{"predicted target": "Or67a", "DRSC id": "DRSC11240", "z-score, replicate 1": -0.3}
{"predicted target": "E(Pc)", "DRSC id": "DRSC05281", "z-score, replicate 1": 1.7}
{"predicted target": "E(Pc)", "DRSC id": "DRSC07408", "z-score, replicate 1": 1.6}
{"predicted target": "4E-T", "DRSC id": "DRSC17201", "z-score, replicate 1": -0.4}

The list itself, repeating the preview:
{"predicted target": "Or67a", "DRSC id": "DRSC11240", "z-score, replicate 1": -0.3}
{"predicted target": "E(Pc)", "DRSC id": "DRSC05281", "z-score, replicate 1": 1.7}
{"predicted target": "E(Pc)", "DRSC id": "DRSC07408", "z-score, replicate 1": 1.6}
{"predicted target": "4E-T", "DRSC id": "DRSC17201", "z-score, replicate 1": -0.4}
{"predicted target": "4E-T", "DRSC id": "DRSC17208", "z-score, replicate 1": -0.5}
{"predicted target": "CG5568", "DRSC id": "DRSC10518", "z-score, replicate 1": -0.2}
{"predicted target": "Hex-C", "DRSC id": "DRSC07079", "z-score, replicate 1": 1.6}
{"predicted target": "AGBE", "DRSC id": "DRSC06861", "z-score, replicate 1": 0.9}
{"predicted target": "fd3F (retired record)", "DRSC id": "DRSC17843", "z-score, replicate 1": -0.3}
{"predicted target": "RtGEF", "DRSC id": "DRSC03604", "z-score, replicate 1": -0.1}
{"predicted target": "Sbat", "DRSC id": "DRSC00160", "z-score, replicate 1": 0.4}
{"predicted target": "CG7289", "DRSC id": "DRSC00697", "z-score, replicate 1": -0.3}
{"predicted target": "CG5708", "DRSC id": "DRSC02881", "z-score, replicate 1": -0.2}
{"predicted target": "CG42249", "DRSC id": "DRSC19383", "z-score, replicate 1": -0.2}
{"predicted target": "CG42249", "DRSC id": "DRSC19826", "z-score, replicate 1": -0.1}
{"predicted target": "CG3419 (retired record)", "DRSC id": "DRSC04368", "z-score, replicate 1": 0.1}
{"predicted target": "CG3419 (retired record)", "DRSC id": "DRSC04369", "z-score, replicate 1": 0}
{"predicted target": "Tmtc4", "DRSC id": "DRSC15702", "z-score, replicate 1": -0.2}
{"predicted target": "sut4", "DRSC id": "DRSC07703", "z-score, replicate 1": -0.3}
{"predicted target": "CG17994", "DRSC id": "DRSC04877", "z-score, replicate 1": -0.2}
{"predicted target": "sip2", "DRSC id": "DRSC03154", "z-score, replicate 1": -0.2}
{"predicted target": "rtp", "DRSC id": "DRSC12132", "z-score, replicate 1": -0.4}
{"predicted target": "imd", "DRSC id": "DRSC05928", "z-score, replicate 1": -0.1}
{"predicted target": "Actn", "DRSC id": "DRSC17724", "z-score, replicate 1": -0.4}
{"predicted target": "CG33177", "DRSC id": "DRSC19949", "z-score, replicate 1": -0.4}
{"predicted target": "CG1428", "DRSC id": "DRSC03708", "z-score, replicate 1": -0.4}
{"predicted target": "Atpalpha", "DRSC id": "DRSC14119", "z-score, replicate 1": -0.3}
{"predicted target": "CG14315", "DRSC id": "DRSC14794", "z-score, replicate 1": -0.4}
{"predicted target": "Lk", "DRSC id": "DRSC10022", "z-score, replicate 1": -0.1}
{"predicted target": "CycA", "DRSC id": "DRSC09132", "z-score, replicate 1": 0.7}
{"predicted target": "CycA", "DRSC id": "DRSC11123", "z-score, replicate 1": 1.8}
{"predicted target": "Xrcc2", "DRSC id": "DRSC19984", "z-score, replicate 1": -0.1}
{"predicted target": "Vps33B", "DRSC id": "DRSC15722", "z-score, replicate 1": -0.2}
{"predicted target": "Tsp42Er", "DRSC id": "DRSC06183", "z-score, replicate 1": -0.4}
{"predicted target": "MED14", "DRSC id": "DRSC08235", "z-score, replicate 1": 0}
{"predicted target": "CG15803", "DRSC id": "DRSC15121", "z-score, replicate 1": -0.2}
{"predicted target": "Klp59C", "DRSC id": "DRSC04348", "z-score, replicate 1": -0.4}
{"predicted target": "mahe", "DRSC id": "DRSC17755", "z-score, replicate 1": -0.5}
{"predicted target": "Pex11ab", "DRSC id": "DRSC07145", "z-score, replicate 1": -0.3}
{"predicted target": "nxf2", "DRSC id": "DRSC10403", "z-score, replicate 1": -0.3}
